Values from PubChem BioAssay AID1224830 (NIAID, 2016)
This is one part, drawn at random, of about 18,000 deposited reagents. Over the whole deposit, about 2,900 (16%) are marked active. 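Calls are made per well; low scores hint the gene aids the LPS response, high scores that it dampens it.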 Unmarked entries are inactive. Repeated entries: four replicate wells of each siRNA pool.

Test: 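Host factors that control LPS-induced TNF expression in human macrophages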 (primary screen)
System: human THP-1 monocytic leukaemia cells, TNF dual-luciferase reporter clone, PMA-differentiated to macrophage-like cells
Knock-down reagent: siRNA pool against human genes, 50 nM
Duration: LPS for 4 h, given about 3 days after siRNA transfection
Challenge: bacterial LPS (TLR4 ligand), 10 ng/ml
Measured: 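Ratio of firefly to renilla light, scaled to the plate median and expressed as a robust z-score per replicate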
Reading the numbers: TNF reporter robust z-score: higher = stronger TNF reporter response to LPS
Call rule: 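Each well counts as active if its z-score is over 2.8 or under -1.5; controls are left without a call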

gene | TNF reporter robust z-score
DDX4 (GeneID 54514) | 0.17
DDX4 (GeneID 54514) | -0.17
DDX4 (GeneID 54514) | 0.15
DDX4 (GeneID 54514) | -0.35
IRX2-DT (GeneID 153571) | -0.04
IRX2-DT (GeneID 153571) | 0.29
IRX2-DT (GeneID 153571) | 2.16
IRX2-DT (GeneID 153571) | 3.5 (active)
DCAF5 (GeneID 8816) | -0.13
DCAF5 (GeneID 8816) | 0.11
DCAF5 (GeneID 8816) | -0.12
DCAF5 (GeneID 8816) | 0.67
PCDHA13 (GeneID 56136) | -1.5
PCDHA13 (GeneID 56136) | -1.67 (active)
PCDHA13 (GeneID 56136) | -1.57 (active)
PCDHA13 (GeneID 56136) | -1.74 (active)
SLC25A21 (GeneID 89874) | -1.03
SLC25A21 (GeneID 89874) | -0.92
SLC25A21 (GeneID 89874) | -0.82
SLC25A21 (GeneID 89874) | -0.74
CYP2D6 (GeneID 1565) | 1.6
CYP2D6 (GeneID 1565) | 0.43
CYP2D6 (GeneID 1565) | 0.03
CYP2D6 (GeneID 1565) | 1.05
ESCO1 (GeneID 114799) | 0.61
ESCO1 (GeneID 114799) | 0.79
ESCO1 (GeneID 114799) | 0.19
ESCO1 (GeneID 114799) | 0.22
ZBTB21 (GeneID 49854) | 0.76
ZBTB21 (GeneID 49854) | -0.55
ZBTB21 (GeneID 49854) | 0.14
ZBTB21 (GeneID 49854) | -0.79
RBM23 (GeneID 55147) | -0.62
RBM23 (GeneID 55147) | -1.14
RBM23 (GeneID 55147) | -0.4
RBM23 (GeneID 55147) | 1.8
RNF208 (GeneID 727800) | -0.42
RNF208 (GeneID 727800) | 1.95
RNF208 (GeneID 727800) | 1.69
RNF208 (GeneID 727800) | 0.04
FBLIM1 (GeneID 54751) | 0.63
FBLIM1 (GeneID 54751) | 2.67
FBLIM1 (GeneID 54751) | 1.2
FBLIM1 (GeneID 54751) | 1.56
EPN1 (GeneID 29924) | -1
EPN1 (GeneID 29924) | -0.55
EPN1 (GeneID 29924) | -0.89
EPN1 (GeneID 29924) | -0.49
GPR183 (GeneID 1880) | 0.64
GPR183 (GeneID 1880) | 1.85
GPR183 (GeneID 1880) | 0.55
GPR183 (GeneID 1880) | 4.4 (active)
TBL2 (GeneID 26608) | -0.87
TBL2 (GeneID 26608) | -0.94
TBL2 (GeneID 26608) | -1.01
TBL2 (GeneID 26608) | -1.13
UTP14C (GeneID 9724) | -0.29
UTP14C (GeneID 9724) | -0.31
UTP14C (GeneID 9724) | -0.27
UTP14C (GeneID 9724) | 0.22
ABCG2 (GeneID 9429) | -0.34
ABCG2 (GeneID 9429) | 0.45
ABCG2 (GeneID 9429) | 0
CIB1 (GeneID 10519) | -0.07
CIB1 (GeneID 10519) | 1.99
CIB1 (GeneID 10519) | 0.64
CIB1 (GeneID 10519) | 0.74
FKBP3 (GeneID 2287) | 0.25
FKBP3 (GeneID 2287) | 0.52
FKBP3 (GeneID 2287) | 0.04
FKBP3 (GeneID 2287) | 0.18
ZNF552 (GeneID 79818) | -0.02
ZNF552 (GeneID 79818) | -0.49
ZNF552 (GeneID 79818) | -0.87
ZNF552 (GeneID 79818) | -0.53
HTRA1 (GeneID 5654) | -0.25
HTRA1 (GeneID 5654) | 0.3
HTRA1 (GeneID 5654) | 1.88
HTRA1 (GeneID 5654) | 0.56
CAPN13 (GeneID 92291) | 0.09
CAPN13 (GeneID 92291) | 0.71
CAPN13 (GeneID 92291) | 0.33
CAPN13 (GeneID 92291) | 0.36
ZNF511 (GeneID 118472) | 1.51
ZNF511 (GeneID 118472) | 2.48
ZNF511 (GeneID 118472) | 1.56
ZNF511 (GeneID 118472) | 0.39
CEP19 (GeneID 84984) | 0.34
CEP19 (GeneID 84984) | 0.64
CEP19 (GeneID 84984) | -0.27
CEP19 (GeneID 84984) | 0.13
MYOZ1 (GeneID 58529) | -0.16
MYOZ1 (GeneID 58529) | 0.94
MYOZ1 (GeneID 58529) | -0.35
MYOZ1 (GeneID 58529) | 1.15
TIMM44 (GeneID 10469) | -1.14
TIMM44 (GeneID 10469) | 0.15
TIMM44 (GeneID 10469) | -0.67
TIMM44 (GeneID 10469) | 1.2
PHKA1 (GeneID 5255) | -1
PHKA1 (GeneID 5255) | 0.15
PHKA1 (GeneID 5255) | -0.75
PHKA1 (GeneID 5255) | 1.15
USP22 (GeneID 23326) | -0.41
USP22 (GeneID 23326) | 0.04
USP22 (GeneID 23326) | 0.39
USP22 (GeneID 23326) | 1.61
SLC3A1 (GeneID 6519) | -0.55
SLC3A1 (GeneID 6519) | -0.51
SLC3A1 (GeneID 6519) | 0.27
SLC3A1 (GeneID 6519) | 0.21

Hits, of those listed so far:
gene | TNF reporter robust z-score
IRX2-DT (GeneID 153571) | 3.5 (active)
PCDHA13 (GeneID 56136) | -1.67 (active)
PCDHA13 (GeneID 56136) | -1.57 (active)
PCDHA13 (GeneID 56136) | -1.74 (active)
GPR183 (GeneID 1880) | 4.4 (active)
